Source: US20170137387A1, “PHARMACOLOGICALLY ACTIVE QUINAZOLINEDIONE DERIVATIVES” (ORION CORPORATION, priority 2014, published 2017)
At least one compound was matched to its structure with a doubt left.

Protein sequences, listed by entry. Tags and fused reporters are not part of them. Residues count along the entry.
UniProt O75899, 42-941: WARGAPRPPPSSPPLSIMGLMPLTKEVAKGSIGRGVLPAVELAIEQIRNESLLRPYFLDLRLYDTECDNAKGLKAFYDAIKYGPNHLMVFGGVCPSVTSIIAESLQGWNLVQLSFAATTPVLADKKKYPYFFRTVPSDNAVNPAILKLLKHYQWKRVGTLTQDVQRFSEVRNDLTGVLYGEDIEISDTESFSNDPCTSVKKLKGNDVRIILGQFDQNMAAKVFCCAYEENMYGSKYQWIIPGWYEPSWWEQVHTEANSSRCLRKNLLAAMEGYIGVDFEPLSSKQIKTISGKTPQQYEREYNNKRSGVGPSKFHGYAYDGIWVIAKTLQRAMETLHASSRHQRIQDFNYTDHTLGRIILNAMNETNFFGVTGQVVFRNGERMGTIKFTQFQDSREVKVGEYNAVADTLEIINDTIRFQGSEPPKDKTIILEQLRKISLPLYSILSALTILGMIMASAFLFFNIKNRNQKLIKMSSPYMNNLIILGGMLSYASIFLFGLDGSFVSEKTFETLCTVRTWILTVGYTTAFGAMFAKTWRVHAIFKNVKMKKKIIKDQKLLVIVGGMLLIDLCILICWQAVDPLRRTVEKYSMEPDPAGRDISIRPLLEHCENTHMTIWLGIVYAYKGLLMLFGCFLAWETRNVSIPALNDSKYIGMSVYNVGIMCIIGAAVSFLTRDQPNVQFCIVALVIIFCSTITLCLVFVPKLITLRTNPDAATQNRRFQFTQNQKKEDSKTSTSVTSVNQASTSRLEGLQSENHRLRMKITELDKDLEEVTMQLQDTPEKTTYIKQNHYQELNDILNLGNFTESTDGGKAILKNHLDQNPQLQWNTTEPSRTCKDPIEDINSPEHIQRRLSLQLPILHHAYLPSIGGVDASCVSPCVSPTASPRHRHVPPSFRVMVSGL
UniProt Q9UBS5, 15-961 limits assumed: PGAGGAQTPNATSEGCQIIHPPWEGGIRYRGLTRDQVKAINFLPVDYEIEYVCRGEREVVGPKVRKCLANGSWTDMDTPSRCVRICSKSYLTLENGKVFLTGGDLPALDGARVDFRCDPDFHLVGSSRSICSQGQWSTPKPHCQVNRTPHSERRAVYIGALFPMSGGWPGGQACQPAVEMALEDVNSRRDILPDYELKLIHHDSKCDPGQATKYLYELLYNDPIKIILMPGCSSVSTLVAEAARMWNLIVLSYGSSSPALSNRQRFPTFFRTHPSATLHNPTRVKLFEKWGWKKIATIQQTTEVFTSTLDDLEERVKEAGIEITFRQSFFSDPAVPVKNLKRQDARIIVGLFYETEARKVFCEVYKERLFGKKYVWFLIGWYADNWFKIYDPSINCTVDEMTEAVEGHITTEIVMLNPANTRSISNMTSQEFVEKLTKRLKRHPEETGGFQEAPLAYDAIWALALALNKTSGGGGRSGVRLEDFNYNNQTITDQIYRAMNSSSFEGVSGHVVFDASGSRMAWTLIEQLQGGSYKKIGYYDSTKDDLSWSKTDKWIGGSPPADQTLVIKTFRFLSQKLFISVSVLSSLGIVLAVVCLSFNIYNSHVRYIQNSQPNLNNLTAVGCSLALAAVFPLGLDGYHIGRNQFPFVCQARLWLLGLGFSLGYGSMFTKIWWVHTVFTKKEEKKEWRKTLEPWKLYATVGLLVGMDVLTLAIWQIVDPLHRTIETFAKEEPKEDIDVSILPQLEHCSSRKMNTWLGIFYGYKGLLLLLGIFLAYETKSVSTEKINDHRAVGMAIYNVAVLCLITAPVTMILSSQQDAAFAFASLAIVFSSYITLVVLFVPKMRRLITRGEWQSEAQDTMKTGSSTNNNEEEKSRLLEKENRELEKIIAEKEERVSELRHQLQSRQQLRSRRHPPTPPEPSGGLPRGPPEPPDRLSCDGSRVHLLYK

Experiments:
[1] = molecular target: T1, human GABAB1 and GABAB2 receptor subunits (Homo sapiens, UniProt O75899+Q9UBS5); assay: Agonism and positive allosteric modulator pharmacology in vitro, two-addition FLIPR calcium assay; format: cell-based; conditions: CHO cells co-expressing Galpha16; for IA (GABAB agonism): agonism efficacy at 30 μM / GABA efficacy at 30 μM; for IA (GABAB positive allosteric modulation): positive allosteric modulator efficacy at 10 μM (with EC10.5 GABA) / GABA efficacy at 30 μM
T1 construct: expressed in transfected cells; host or cells: CHO cells
Procedure: (§1) CHO cells expressing the human GABAB1 and GABAB2 receptor subunits co-expressing promiscuous Galpha16 proteins to force couple the receptor to the intracellular calcium signalling pathway were used to study GABAB pharmacology in vitro. The cells were maintained at 37° C. in a 5% CO2 95% air atmosphere in HAM F-12 medium supplemented with 10% foetal bovine serum and selection antibiotics.
(§2) The day before the experiment the cells were detached and plated into black-walled clear bottom 384-well plates at a cell density of 20 000 cells per well. The growth medium was removed and the cells were incubated with FLIPR Calcium 5 Assay reagent (Molecular Devices, CA, USA) diluted 1:1 in Probenecid-Ringer for 1 h at 37° C. in dark. Probenecid-Ringer buffer consisted of 150 mM NaCl, 3 mM KCl, 1.2 mM MgCl2, 1 mM CaCl2, 5 mM glucose, 20 mM 2-(4-(2-hydroxyethyl)piperazin-1-yl)ethanesulfonic acid (HEPES), and 2.5 mM Probenecid (pH 7.4 adjusted with 1.0 M NaOH and osmolarity adjusted to […]). Compounds were dissolved in Probenecid-Ringer. […] The samples were excited at 470-495 nm and emission was detected at 515-575 nm. All experiments were performed at 37° C.
A two-addition protocol was used to determine agonism and positive allosteric modulator pharmacology in the same assay using a kinetic read out. Agonism pharmacology of compounds was studied in the first addition in the concentration range 0.123-30 μM in quadruplicate at each concentration. In the second addition, a low (EC10.5) concentration of GABA was applied to detect the positive allosteric modulator pharmacology of the compounds to be studied. The EC10.5 concentration was determined from the GABA EC50 value using the formula ECF≈(F/(100-F))^1/H·EC50, wherein F is the fraction of full response and H is Hill slope.
Baseline fluorescence minimum was subtracted from maximum for the calculation of agonism and positive allosteric modulator pharmacology. Both in the agonism mode and in the allosteric mode, the efficacy was related to the intrinsic activity (IA) of the endogenous agonist GABA at 30 μM (positive allosteric modulator efficacy at 10 μM/GABA efficacy or agonism efficacy at 30 μM/GABA efficacy). To determine potentiation of GABA dose-response, the compounds, at a concentration of 10 μM diluted in Probenecid-Ringer, were added by FLIPR tetra followed by addition of GABA (diluted in water in the concentration range 0.123-10 μM). The EC50 values were determined using a four-parameter logistic fit (model 205 in ActivityBase XE). The EC50 value of GABA was divided with the EC50 value of GABA in the presence of positive allosteric modulator to determine potentiation of GABA dose-response EC50 value.

[2] = molecular target: T1, human GABAB1 and GABAB2 receptor subunits; assay: Potentiation of GABA dose-response, FLIPR calcium assay; format: cell-based; conditions: compound at 10 μM; EC50 of GABA divided by EC50 of GABA in the presence of positive allosteric modulator
Procedure: as §1, §2
Baseline fluorescence minimum was subtracted from maximum for the calculation of agonism and positive allosteric modulator pharmacology. […] The EC50 values were determined using a four-parameter logistic fit (model 205 in ActivityBase XE). […]

| Compound | IA (GABAB agonism) [1] | IA (GABAB positive allosteric modulation) [1] | Potentiation of GABA (fold) [2] [fold] |
| --- | --- | --- | --- |
| COc1cc(OC)c2c(=O)n(Cc3ccc(Br)cc3)c(=O)n(C)c2c1 [Example 1, 3-(4-Bromobenzyl)-5,7-dimethoxy-1-methylquinazoline-2,4(1H,3H)-dione] | 0.22 | 0.64 | 6.4 |
| COc1ccc(Cn2c(=O)c3cc(F)c(Cl)cc3n(CC(C)(C)O)c2=O)cc1 [Example 4, 7-Chloro-6-fluoro-1-(2-hydroxy-2-methylpropyl)-3-(4-methoxybenzyl)quinazoline-2,4(1H,3H)-dione] | 0.19 | 0.58 | 10.3 |
